PubChem BioAssay AID1259274 – Sanger Institute – 2017

- Purpose: 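Kinases RKO cells need to grow, alone or with anchor drugs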 (primary screen)
- System: human RKO colorectal cancer cells
- Knock-down reagent: siRNA pool against human genes
- Conditions: anchor drugs BYL719 at 1 µM, cetuximab at 5 µg/ml or trametinib at 10 nM; DMSO vehicle as the no-drug arm
- Detection: 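Viability as fraction of non-targeting pool 2 control, averaged across replicates, robust z-score for single knock-down, and a combination synergy score per anchor drug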
- Reading the numbers: viability z-score, siRNA alone: higher = more viable cells; low values mean essential gene; viability, siRNA alone, vehicle: higher = more viable cells; synergy score with BYL719 and synergy score with Trametinib and synergy score with Cetuximab: higher = stronger combined killing with the drug
- Hit rule: 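Essential when the robust viability z-score with siRNA only falls below -3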
- Meaning of the calls: active = essential when knocked down alone; inactive = no change alone
Here is an unselected part of 794 deposited reagents. 11 of them (1.4%) were called active. 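Calls rest on knock-down without drug only; synergy scores with anchor drugs were not used for the essential call.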 Viability is capped at 1. The record does not give: the amount of reagent, the time to read-out.

Target gene	viability z-score, siRNA alone	viability, siRNA alone, vehicle (fraction of control)	synergy score with BYL719	synergy score with Trametinib	synergy score with Cetuximab	Outcome
GK	0.0388	0.901	-0.0618	-0.0922	-0.0661	inactive
FXN	-0.232	0.878	-0.154	-0.0829	-0.0644	inactive
GRK2	-0.42	0.862	-0.0112	-0.0659	-0.0791	inactive
TNNI3K	0.998	0.983	-0.00696	-0.0444	-0.0165	inactive
TCF7L2	0.727	0.96	-0.0809	-0.339	-0.0373	inactive
ADCK2	0.168	0.912	-0.0852	-0.286	-0.0876	inactive
CEP290	1.19	1	0.0381	-0.168	0.0365	inactive
LMBR1	1.08	0.991	-0.0253	-0.105	-0.00928	inactive
CHUK	1.1	0.992	-0.00297	-0.146	-0.00812	inactive
LMTK1	-0.572	0.849	-0.076	-0.101	-0.00836	inactive
TNK1	1.19	1	0.0235	-0.168	0.0562	inactive
MYLK	-0.834	0.827	-0.0272	-0.102	-0.0587	inactive
TBCK	0.569	0.947	-0.0166	-0.169	0.00635	inactive
CDKN1B	0.131	0.909	-0.0944	-0.182	-0.0908	inactive
RIPK3	-0.413	0.863	0.0811	-0.00544	0.0224	inactive
NEK8	-1.63	0.759	-0.0881	-0.0368	-0.109	inactive
TP53RK	-0.205	0.88	-0.143	-0.151	-0.106	inactive
SRPK1	0.944	0.979	0.0705	-0.112	0.125	inactive
CAMK2B	1.19	1	-0.131	-0.152	0.107	inactive
CMPK1	-0.207	0.88	-0.135	-0.156	-0.0414	inactive
TRIO	0.416	0.934	0.0189	-0.123	-0.0381	inactive
SMAD2	-0.1	0.889	-0.0148	0.0441	0.0677	inactive
TEX14	1.19	1	-0.0423	-0.121	0.0331	inactive
OBSCN	0.152	0.911	-0.031	-0.243	-0.0402	inactive
FN3KRP	0.144	0.91	0.0462	0.0104	0.0532	inactive
RBM10	-1.9	0.735	0.0857	-0.0418	0.00471	inactive
NEK4	-0.751	0.834	-0.0424	-0.18	-0.0178	inactive
BPTF	1.19	1	-0.0818	-0.138	0	inactive
PIK3CD	1.1	0.992	0.0178	-0.165	0.0702	inactive
PANK3	1.19	1	-0.00275	-0.314	0	inactive
MAP2K4	-0.95	0.817	-0.12	-0.258	-0.132	inactive
CDK11A	-3.34	0.612	-0.265	-0.14	-0.026	active
RPS6KA5	-0.149	0.885	-0.107	-0.133	-0.0087	inactive
DGKG	0.595	0.949	-0.0318	-0.228	0.032	inactive
MAP3K10	1.19	1	-0.132	-0.171	0	inactive
DDR2	0.676	0.956	-0.0498	-0.0864	-0.0441	inactive
ITPKC	1.19	1	0.00418	-0.0729	0	inactive
CLK3	-0.809	0.829	-0.136	-0.188	-0.0633	inactive
CAMKK1	-0.291	0.873	-0.0864	-0.206	-0.0456	inactive
FRK	1.19	1	-0.109	-0.109	0.058	inactive
MAPK6	-1.26	0.79	-0.0339	-0.166	-0.0562	inactive
CRIM1	-0.77	0.832	-0.128	-0.132	-0.168	inactive
ACVR1C	0.404	0.933	-0.0449	-0.104	0.00454	inactive
AGK	0.151	0.911	-0.123	-0.205	-0.0811	inactive
BRD3	0.55	0.945	-0.118	-0.167	-0.0549	inactive
ROR2	-0.785	0.831	-0.213	-0.143	-0.128	inactive
PDGFRL	0.0925	0.906	-0.0776	-0.251	-0.0593	inactive
ADPGK	-0.987	0.813	-0.17	-0.163	-0.162	inactive
COQ8B	0.79	0.966	-0.0422	-0.4	-0.0343	inactive
CDKN1A	-0.261	0.876	-0.0935	-0.256	-0.0409	inactive
